Data as given in PubChem BioAssay AID504764 (Drosophila RNAi Screening Center, 2011).

Aim: 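Genes whose knock-down alters Notch-dependent transcription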 (primary screen)
System: Drosophila Kc167 cells
Reagents: long dsRNA against Drosophila genes
Timing: about 5 days (4 days dsRNA, then 24 h after transfection)
Challenge: transfection of constitutively active membrane-tethered Notch lacking the extracellular domain, read 24 h later
Measurement: 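Firefly luciferase from an E(spl)m3 reporter with active Notch, plus control-promoter and uninduced reporter wells for normalisation; unnormalised counts, duplicate wells a and b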
Reading the numbers: induced reporter light, run 1, well a and induced reporter light, run 1, well b: higher = more light from the Notch target reporter with active Notch; control promoter light, run 1, well a and control promoter light, run 1, well b: higher = more light from the viral control promoter (cell number, transfection, viability); uninduced reporter light, run 1, well a: higher = more light from the Notch target reporter without active Notch
Rule for the call: 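Hit if the duplicate-averaged log2 ratio of induced to control-promoter light gives a plate-wise z beyond ±2, or induced to uninduced beyond ±1.8; weak-control or discordant-duplicate wells dropped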
Meaning of the calls: active = modifier hit (raised or lowered Notch signal); inactive = not a hit
The screen tested about 22,000 reagents; this is an unselected part of those with a known target gene and a result. In the full data, 403 (1.9%) were called active. 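Unnormalised raw counts per well; ratio z-scores behind the hit calls and whether each hit raises or lowers signal are not deposited.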 Entries without a mark were called inactive. Reagents against one gene are numbered here. No sequences are given here. The record does not give: the amount of reagent.

After knock-down of Eaat1 (Excitatory amino acid transporter 1) the results were induced reporter light, run 1, well a = 1.70e5; induced reporter light, run 1, well b = 1.97e5; control promoter light, run 1, well a = 88095; control promoter light, run 1, well b = 1.11e5; uninduced reporter light, run 1, well a = 25260.
After knock-down of btv (beethoven) #1, the record shows induced reporter light, run 1, well a = 64930; induced reporter light, run 1, well b = 69860; control promoter light, run 1, well a = 72780; control promoter light, run 1, well b = 70350; uninduced reporter light, run 1, well a = 3790.
After knock-down of btv (beethoven) #2, the record shows induced reporter light, run 1, well a = 1.14e5; induced reporter light, run 1, well b = 1.23e5; control promoter light, run 1, well a = 1.06e5; control promoter light, run 1, well b = 1.22e5; uninduced reporter light, run 1, well a = 8625.
Silencing of Mcm2 (Minichromosome maintenance 2) came out at: induced reporter light, run 1, well a = 78090; induced reporter light, run 1, well b = 1.04e5; control promoter light, run 1, well a = 1.68e5; control promoter light, run 1, well b = 1.18e5; uninduced reporter light, run 1, well a = 6378.
Knock-down of Nep4 (Neprilysin 4) gave: induced reporter light, run 1, well a = 1.65e5; induced reporter light, run 1, well b = 1.65e5; control promoter light, run 1, well a = 2.16e5; control promoter light, run 1, well b = 2.40e5; uninduced reporter light, run 1, well a = 13130.
Knock-down of cass (cassowary) resulted in: induced reporter light, run 1, well a = 86145; induced reporter light, run 1, well b = 1.01e5; control promoter light, run 1, well a = 72635; control promoter light, run 1, well b = 87820; uninduced reporter light, run 1, well a = 6845.
After knock-down of CG6686, the record shows induced reporter light, run 1, well a = 1.77e5; induced reporter light, run 1, well b = 1.70e5; control promoter light, run 1, well a = 1.35e5; control promoter light, run 1, well b = 1.55e5; uninduced reporter light, run 1, well a = 10150.
nht (no hitter) showed induced reporter light, run 1, well a = 1.46e5; induced reporter light, run 1, well b = 1.66e5; control promoter light, run 1, well a = 1.50e5; control promoter light, run 1, well b = 1.75e5; uninduced reporter light, run 1, well a = 12088.
With knock-down of mub (mushroom-body expressed) the results were induced reporter light, run 1, well a = 92035; induced reporter light, run 1, well b = 86630; control promoter light, run 1, well a = 49485; control promoter light, run 1, well b = 57665; uninduced reporter light, run 1, well a = 8225.
With knock-down of Ufc1 (Ubiquitin-fold modifier conjugating enzyme 1), the record shows induced reporter light, run 1, well a = 97175; induced reporter light, run 1, well b = 1.02e5; control promoter light, run 1, well a = 2.05e5; control promoter light, run 1, well b = 2.17e5; uninduced reporter light, run 1, well a = 9615.

A run of entries taken from the entries so far, as a working copy:
Mcm2 (Minichromosome maintenance 2) | induced reporter light, run 1, well a: 78090; induced reporter light, run 1, well b: 1.04e5; control promoter light, run 1, well a: 1.68e5; control promoter light, run 1, well b: 1.18e5; uninduced reporter light, run 1, well a: 6378
Nep4 (Neprilysin 4) | induced reporter light, run 1, well a: 1.65e5; induced reporter light, run 1, well b: 1.65e5; control promoter light, run 1, well a: 2.16e5; control promoter light, run 1, well b: 2.40e5; uninduced reporter light, run 1, well a: 13130
cass (cassowary) | induced reporter light, run 1, well a: 86145; induced reporter light, run 1, well b: 1.01e5; control promoter light, run 1, well a: 72635; control promoter light, run 1, well b: 87820; uninduced reporter light, run 1, well a: 6845
CG6686 | induced reporter light, run 1, well a: 1.77e5; induced reporter light, run 1, well b: 1.70e5; control promoter light, run 1, well a: 1.35e5; control promoter light, run 1, well b: 1.55e5; uninduced reporter light, run 1, well a: 10150
nht (no hitter) | induced reporter light, run 1, well a: 1.46e5; induced reporter light, run 1, well b: 1.66e5; control promoter light, run 1, well a: 1.50e5; control promoter light, run 1, well b: 1.75e5; uninduced reporter light, run 1, well a: 12088

More records follow:
por (porcupine) scored induced reporter light, run 1, well a = 92345; induced reporter light, run 1, well b = 66000; control promoter light, run 1, well a = 79970; control promoter light, run 1, well b = 87820; uninduced reporter light, run 1, well a = 9615.
CG11085 gave induced reporter light, run 1, well a = 1.67e5; induced reporter light, run 1, well b = 1.48e5; control promoter light, run 1, well a = 3.20e5; control promoter light, run 1, well b = 2.80e5; uninduced reporter light, run 1, well a = 12170.
Against BG642163 #1, the values are induced reporter light, run 1, well a = 1.68e5; induced reporter light, run 1, well b = 1.45e5; control promoter light, run 1, well a = 1.80e5; control promoter light, run 1, well b = 1.64e5; uninduced reporter light, run 1, well a = 10220.
BG642163 #2 gave induced reporter light, run 1, well a = 1.90e5; induced reporter light, run 1, well b = 1.56e5; control promoter light, run 1, well a = 1.87e5; control promoter light, run 1, well b = 1.21e5; uninduced reporter light, run 1, well a = 10715.
CG13623 gave induced reporter light, run 1, well a = 1.24e5; induced reporter light, run 1, well b = 1.11e5; control promoter light, run 1, well a = 1.08e5; control promoter light, run 1, well b = 1.23e5; uninduced reporter light, run 1, well a = 9140.
With knock-down of CG13038, the screen gave induced reporter light, run 1, well a = 1.34e5; induced reporter light, run 1, well b = 1.05e5; control promoter light, run 1, well a = 1.40e5; control promoter light, run 1, well b = 1.15e5; uninduced reporter light, run 1, well a = 8482.
With knock-down of CG14540, the screen gave induced reporter light, run 1, well a = 77700; induced reporter light, run 1, well b = 70185; control promoter light, run 1, well a = 79395; control promoter light, run 1, well b = 78665; uninduced reporter light, run 1, well a = 7990.
Against Hpr1, the entry reads induced reporter light, run 1, well a = 66300; induced reporter light, run 1, well b = 66455; control promoter light, run 1, well a = 35420; control promoter light, run 1, well b = 33180; uninduced reporter light, run 1, well a = 4540.
Against CG5418 the deposit lists induced reporter light, run 1, well a = 1.47e5; induced reporter light, run 1, well b = 1.47e5; control promoter light, run 1, well a = 1.41e5; control promoter light, run 1, well b = 1.42e5; uninduced reporter light, run 1, well a = 11130.
After knock-down of Dcp-1 (Death caspase-1) the results were induced reporter light, run 1, well a = 1.84e5; induced reporter light, run 1, well b = 1.75e5; control promoter light, run 1, well a = 1.74e5; control promoter light, run 1, well b = 1.81e5; uninduced reporter light, run 1, well a = 13110.
CG3626 showed induced reporter light, run 1, well a = 1.18e5; induced reporter light, run 1, well b = 1.53e5; control promoter light, run 1, well a = 2.35e5; control promoter light, run 1, well b = 2.66e5; uninduced reporter light, run 1, well a = 10245.
Against pkm (Pinkman), the values are induced reporter light, run 1, well a = 2.45e5; induced reporter light, run 1, well b = 2.29e5; control promoter light, run 1, well a = 2.48e5; control promoter light, run 1, well b = 2.33e5; uninduced reporter light, run 1, well a = 15110.
Knock-down of mRpS29 (mitochondrial ribosomal protein S29) gave: induced reporter light, run 1, well a = 1.60e5; induced reporter light, run 1, well b = 1.57e5; control promoter light, run 1, well a = 1.21e5; control promoter light, run 1, well b = 1.25e5; uninduced reporter light, run 1, well a = 11850.
Against Doa (Darkener of apricot) #1, the entry reads induced reporter light, run 1, well a = 2.24e5; induced reporter light, run 1, well b = 2.11e5; control promoter light, run 1, well a = 2.41e5; control promoter light, run 1, well b = 2.45e5; uninduced reporter light, run 1, well a = 17620.
Knock-down of Doa (Darkener of apricot) #2 gave: induced reporter light, run 1, well a = 1.76e5; induced reporter light, run 1, well b = 1.57e5; control promoter light, run 1, well a = 1.78e5; control promoter light, run 1, well b = 1.83e5; uninduced reporter light, run 1, well a = 13435.
Doa (Darkener of apricot) #3 showed induced reporter light, run 1, well a = 2.11e5; induced reporter light, run 1, well b = 1.70e5; control promoter light, run 1, well a = 1.84e5; control promoter light, run 1, well b = 2.01e5; uninduced reporter light, run 1, well a = 17570.
Doa (Darkener of apricot) #4 scored induced reporter light, run 1, well a = 1.68e5; induced reporter light, run 1, well b = 1.76e5; control promoter light, run 1, well a = 2.03e5; control promoter light, run 1, well b = 2.39e5; uninduced reporter light, run 1, well a = 15695.
Doa (Darkener of apricot) #5 showed induced reporter light, run 1, well a = 1.90e5; induced reporter light, run 1, well b = 1.67e5; control promoter light, run 1, well a = 2.01e5; control promoter light, run 1, well b = 1.93e5; uninduced reporter light, run 1, well a = 16935.
Against Doa (Darkener of apricot) #6, the values are induced reporter light, run 1, well a = 1.94e5; induced reporter light, run 1, well b = 2.37e5; control promoter light, run 1, well a = 3.04e5; control promoter light, run 1, well b = 2.99e5; uninduced reporter light, run 1, well a = 15130.
